According to PubChem BioAssay AID651768 (National Center for Advancing Translational Sciences (NCATS), 2012):
About 1,700 (0.47%) of roughly 360,000 compounds were called active. This list was built around the results that the source calls inconclusive (neither active nor inactive); the mix of calls is not that of the screen. Calls follow the shape of the dose curve; as a rule, active = well fitted inhibition curve with a large enough effect; inconclusive = small, poorly fitted or top-dose-only effect; inactive = no such curve, though single readings can be large or run the other way. Potencies of inconclusive entries are doubtful fits and often do not repeat.

Amino acid sequences for entries named in this document (tags omitted).
UniProt Q14191, whole entry, looked up: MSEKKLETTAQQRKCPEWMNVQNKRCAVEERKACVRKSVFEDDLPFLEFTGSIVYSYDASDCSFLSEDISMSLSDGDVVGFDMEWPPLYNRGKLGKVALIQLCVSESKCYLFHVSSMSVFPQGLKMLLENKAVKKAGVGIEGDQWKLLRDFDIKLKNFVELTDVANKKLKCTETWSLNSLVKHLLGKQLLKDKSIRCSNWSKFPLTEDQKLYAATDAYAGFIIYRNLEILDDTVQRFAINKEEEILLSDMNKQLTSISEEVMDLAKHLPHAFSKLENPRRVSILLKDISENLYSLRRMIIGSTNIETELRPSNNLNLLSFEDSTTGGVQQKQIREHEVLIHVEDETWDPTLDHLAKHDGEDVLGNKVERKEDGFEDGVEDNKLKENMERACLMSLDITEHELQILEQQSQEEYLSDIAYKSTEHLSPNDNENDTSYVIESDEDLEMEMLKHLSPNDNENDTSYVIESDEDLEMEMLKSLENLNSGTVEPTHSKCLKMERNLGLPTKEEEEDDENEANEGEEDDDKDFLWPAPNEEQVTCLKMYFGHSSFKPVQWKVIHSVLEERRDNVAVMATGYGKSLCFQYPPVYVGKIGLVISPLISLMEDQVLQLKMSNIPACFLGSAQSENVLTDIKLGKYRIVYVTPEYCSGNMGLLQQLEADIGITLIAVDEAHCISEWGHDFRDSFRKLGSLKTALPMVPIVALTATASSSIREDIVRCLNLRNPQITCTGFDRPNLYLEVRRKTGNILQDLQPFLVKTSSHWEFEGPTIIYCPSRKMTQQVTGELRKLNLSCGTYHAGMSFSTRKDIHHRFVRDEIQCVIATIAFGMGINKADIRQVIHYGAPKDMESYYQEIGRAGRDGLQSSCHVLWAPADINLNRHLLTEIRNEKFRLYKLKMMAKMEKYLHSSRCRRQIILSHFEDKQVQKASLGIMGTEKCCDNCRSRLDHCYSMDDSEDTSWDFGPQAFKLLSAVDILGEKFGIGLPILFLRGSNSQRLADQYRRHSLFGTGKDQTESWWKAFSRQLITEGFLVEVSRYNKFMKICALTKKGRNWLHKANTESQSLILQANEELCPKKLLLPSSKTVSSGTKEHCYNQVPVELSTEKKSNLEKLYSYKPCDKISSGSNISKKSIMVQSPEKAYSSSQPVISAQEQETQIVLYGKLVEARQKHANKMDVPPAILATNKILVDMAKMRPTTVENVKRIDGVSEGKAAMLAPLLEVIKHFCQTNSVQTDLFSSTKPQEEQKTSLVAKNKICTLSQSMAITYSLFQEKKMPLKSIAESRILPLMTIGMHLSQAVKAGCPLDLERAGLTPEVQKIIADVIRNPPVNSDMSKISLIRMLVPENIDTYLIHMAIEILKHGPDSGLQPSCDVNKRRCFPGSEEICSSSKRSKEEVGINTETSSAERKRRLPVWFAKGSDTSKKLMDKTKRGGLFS

target: Bifunctional 3'-5' exonuclease/ATP-dependent helicase WRN (Homo sapiens) (UniProt Q14191); experiment: qHTS for Inhibitors of WRN Helicase; conditions: WRN helicase unwinding, fluorescent forked duplex, kinetic; activity change, negative = inhibition: at 114 µM (top of the series) unless noted; also: nearly all actives have a fitted effect of over 55% in size
Method in brief: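 WRN at 20 nM final preincubated with compound 15 min at room temperature; reaction started with 100 nM fluorophore/quencher forked duplex oligonucleotide and 2 mM ATP final. Unwinding followed kinetically by red fluorescence (ex 525, em 598 nm).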
% is scaled to controls: 0 for no effect and ±100 for the full control effect; potency is read from the fitted curve at half-maximal effect.

Compound	Potency	activity change, negative = inhibition
Cc1ccc(S(=O)(=O)Nc2cc(C(C(=O)OC(C)C)C(=O)C(F)(F)F)c(O)c3ccccc23)c(C)c1 (configuration not stated)	inconclusive: 50.1 µM [inhibitor, partial curve]	
CC(=O)c1ccc2noc(-c3ccc(C)cc3)c2c1		inactive: 0.553%
Cc1cccc(Nc2nc(N)c([N+](=O)[O-])c(NCc3ccccc3)n2)c1	inconclusive: 79.4 µM [inhibitor, partial curve]	
Cc1ccc(C)n1-c1sccc1C(=O)O	active: 3.16 µM	
Cc1ccc2c(C)c(C)c(=O)n(C)c2c1		inactive: -1.37%
COC(=O)c1cc(S(=O)(=O)NCCCc2ccco2)c[nH]1		inactive: -5.87%
Cc1ccc2c(COC(=O)c3ccccc3F)cc(=O)oc2c1	inconclusive: 17.8 µM [inhibitor, single point]	
CCOc1ccc(Br)cc1S(=O)(=O)N1CCC(C(N)=O)CC1	inconclusive: 39.8 µM [inhibitor, single point]	
O=C(CSc1nc(O)cc(=O)n1-c1ccccc1)Nc1nc2ccccc2s1	inconclusive: 31.6 µM [inhibitor, partial curve, poor fit]	
Cc1cc2c(SCC(=O)Nc3cccc(O)c3)ncnc2s1	inconclusive: 28.2 µM [inhibitor, full curve, poor fit]	
Cc1ccc2cc3cc(C(=O)NCCCN4CCCCCC4)oc3nc2c1	inconclusive: 79.4 µM [inhibitor, single point]	
CC(=O)N(/N=C1\Sc2ccccc2C1=O)c1ccccc1C		inactive: -8.34% [at 57.1 µM]
O=C(O)c1ccc(-c2ncc[nH]2)cc1	inconclusive: 79.4 µM [inhibitor, single point]	
Clc1ccccc1OCCCCN1CCNCC1	inconclusive: 44.7 µM [inhibitor, partial curve]	
Nc1nc(Nc2ccc(Cl)cc2)nc(NCc2ccco2)c1[N+](=O)[O-]	inconclusive: 70.8 µM [inhibitor, partial curve]	
Cn1c(=O)[nH]c(=O)c2c1nc(SCC(=O)O)n2Cc1ccccc1		inactive: 9.47%
CSc1sccc1/C=C(/C#N)C(=O)c1ccco1	active: 50.1 µM	
O=C1NC(=S)S/C1=C\c1cc(Cl)ccc1Cl	inconclusive: 39.8 µM [inhibitor, partial curve, poor fit]	
COc1cc2c(cc1O)CCN(C(=O)c1ccco1)C2C (configuration not stated)	inconclusive: 89.1 µM [inhibitor, single point]	
FC(F)C(F)(F)c1cc(-c2ccccc2)n[nH]1	inconclusive: 3.55 µM [inhibitor, full curve, poor fit]	
O=C(Nc1nccs1)c1ccc2nccnc2c1	inconclusive: 15 µM [inhibitor, partial curve]	
NC(=O)N/N=C/c1cccc(OCc2ccc(F)cc2)c1		inactive: -14.4% [at 57.1 µM]
COc1cc(/C=C(\CCC(=O)O)c2nc3ccccc3s2)ccc1OCC(=O)Nc1c(Cl)cccc1Cl	inconclusive: 56.2 µM [inhibitor, partial curve, poor fit]	
O=C(OCC(=O)N1N=C(c2ccc(Cl)cc2)CC1c1ccco1)c1cccnc1 (configuration not stated)	inconclusive: 56.2 µM [inhibitor, partial curve, poor fit]	

Exported with bars between the fields: part of the list above
Compound | Potency | activity change, negative = inhibition
Cc1ccc2cc3cc(C(=O)NCCCN4CCCCCC4)oc3nc2c1 | inconclusive: 79.4 µM [inhibitor, single point] | 
CC(=O)N(/N=C1\Sc2ccccc2C1=O)c1ccccc1C |  | inactive: -8.34% [at 57.1 µM]

(more compounds)

Compound	Potency	activity change, negative = inhibition
CC(=O)Nc1nonc1NC(C)=O		inactive: 5.93%
C=CCSc1nnc2nc3c(nn12)c1cc(C)ccc1n3CC=C	inconclusive: 70.8 µM [inhibitor, single point]	
COc1ccc(/C=C2/CCCC(CN(C)C)C2=O)cc1 (configuration not stated)	inconclusive: 11.2 µM [inhibitor, full curve, poor fit]	
Cc1[nH]n(-c2ccc([N+](=O)[O-])cc2)c(=O)c1C=NCCc1ccc(S(N)(=O)=O)cc1		inactive: -34.3%
O=C(O)c1cccc(-c2nnn(Cc3ccccc3Cl)n2)c1		inactive: 11.2%
O=[N+]([O-])c1cc([N+](=O)[O-])c2oc(-c3ccccc3)c(Br)c2c1O	inconclusive: 50.1 µM [inhibitor, partial curve]	
O=C(Nc1ccccc1C(F)(F)F)c1c(F)cccc1Cl		inactive: 4.12%
COc1cc(OC)cc(C(=O)OC(C)C(=O)NC2CCCc3ccccc32)c1 (configuration not stated)		inactive: -5.86%
CC(C)(CO)NCC(O)Cn1cc(C=O)c2ccccc21 (configuration not stated)	inconclusive: 89.1 µM [inhibitor, single point]	
O=C(Nc1ccccc1)N1CCC(C(=O)N2CCN(Cc3ccccc3)CC2)CC1	inconclusive: 10 µM [inhibitor, partial curve]	
COc1ccc(-c2n[nH]c(=S)n2N)c(OC)c1		inactive: -3.17%
CCOC(=O)c1cc2c(=O)n3cccc(C)c3nc2n(Cc2ccco2)c1=NC(=O)c1ccccc1	inconclusive: 22.4 µM [inhibitor, partial curve]	
O=C1C=CC(=O)N1CCCCCCCCCCN1C(=O)C=CC1=O	active: 3.16 µM	
O=[N+]([O-])c1ccccc1/C=C/C=N/n1c(-c2ccccc2F)n[nH]c1=S	inconclusive: 3.55 µM [inhibitor, full curve, poor fit]	
O=C(c1ccncc1)N1CCN(C2CCC(c3ccccc3)CC2)CC1 (configuration not stated)	inconclusive: 50.1 µM [inhibitor, partial curve]	
COc1ccc(C(=O)Nc2nc(N)n(-c3ccccc3)n2)cc1		inactive: 8.55%
COc1ccc2c(c1)c(CC(=O)Nc1ccccc1OC)c(C)n2C(=O)c1ccc(Cl)cc1	inconclusive: 28.2 µM [inhibitor, single point]	
N#CC1=C2SCN(Cc3ccco3)CN2C(=O)CC1c1c(F)cccc1Cl (configuration not stated)		inactive: -6.76%
CCOC(=O)C1=C(Cc2ccc(Cl)cc2)C(=O)c2ccccc2C1=O	active: 35.5 µM	
COc1ccc(N2CC(C(=O)Nc3nnc(SCC(=O)NC4CCCC4)s3)CC2=O)cc1 (configuration not stated)	inconclusive: 28.2 µM [inhibitor, partial curve]	
CCN(CC)c1ccc2nc3ccc(N)cc3[n+](-c3ccccc3)c2c1	active: 4.74 µM	
Cc1ccc(S(=O)(=O)OCC(=O)Nc2ccc(C(=O)O)c(O)c2)cc1	inconclusive: 20 µM [inhibitor, full curve]	
O=C(c1cc2c(s1)CCC2)N1CCN(c2ccccc2)CC1	inconclusive: 89.1 µM [inhibitor, partial curve]	
